Article PMC4811448
No constants are given. Whether binding was seen depends on the method and setting. In cells and extracts the contact can be indirect. Some binding calls cover weakened binding; strength is not graded here. For some assays here: Where a sequence is shown, tags or fusion partners need not be part of it.

Amino acid sequences for entries named in this document (tags omitted).
UniProt O35253: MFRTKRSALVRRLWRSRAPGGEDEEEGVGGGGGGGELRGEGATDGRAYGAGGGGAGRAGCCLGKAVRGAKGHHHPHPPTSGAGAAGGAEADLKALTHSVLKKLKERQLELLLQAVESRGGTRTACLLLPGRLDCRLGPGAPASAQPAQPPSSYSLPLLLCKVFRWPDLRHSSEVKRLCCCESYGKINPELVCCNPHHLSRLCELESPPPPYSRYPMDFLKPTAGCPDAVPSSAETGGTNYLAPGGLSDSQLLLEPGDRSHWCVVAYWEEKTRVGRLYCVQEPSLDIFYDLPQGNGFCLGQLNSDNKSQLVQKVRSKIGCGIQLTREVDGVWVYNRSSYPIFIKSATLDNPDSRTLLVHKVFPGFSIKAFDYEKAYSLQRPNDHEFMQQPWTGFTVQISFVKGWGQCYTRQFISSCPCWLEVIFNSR

Tests used:
[1] = target: T1, LKB1 (adenovirally expressed) (UniProt Q15831); assay: co-IP; C2C12 cells adenovirally expressing combinations of LKB1, constitutively active ALK2 and Smad7; immunoprecipitated with anti-LKB1 antibody; immunoblot for Smad7, HA-ALK2 and LKB1
T1 sequence: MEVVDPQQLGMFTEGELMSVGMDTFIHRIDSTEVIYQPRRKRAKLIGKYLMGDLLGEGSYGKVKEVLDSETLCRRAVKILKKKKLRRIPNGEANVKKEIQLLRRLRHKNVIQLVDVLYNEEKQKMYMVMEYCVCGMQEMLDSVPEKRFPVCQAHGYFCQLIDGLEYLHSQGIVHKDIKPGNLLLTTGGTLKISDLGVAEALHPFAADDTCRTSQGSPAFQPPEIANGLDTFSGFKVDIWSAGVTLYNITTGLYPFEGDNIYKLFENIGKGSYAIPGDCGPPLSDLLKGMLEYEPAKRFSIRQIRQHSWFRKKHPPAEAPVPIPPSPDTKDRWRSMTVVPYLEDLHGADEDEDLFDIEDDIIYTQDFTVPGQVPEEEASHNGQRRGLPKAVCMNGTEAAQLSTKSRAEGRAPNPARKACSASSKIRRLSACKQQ

[2] = target: T1, LKB1 (adenovirally expressed); assay: proximity ligation; C2C12 cells, without or with constitutively active ALK2; anti-LKB1 and goat anti-Smad7 antibodies, Duolink reagents (Supplementary Figure 3F)
[3] = target: T2, endogenous mouse Lkb1 (C2C12) (mouse (endogenous in C2C12)) (UniProt Q9WTK7); assay: co-IP; endogenous proteins in C2C12 cells, without or with BMP7 for 1 h; LKB1 antibody or control mouse IgG pre-coupled to magnetic beads, overnight at 4°C; immunoblot for Smad7 and LKB1
T2 sequence: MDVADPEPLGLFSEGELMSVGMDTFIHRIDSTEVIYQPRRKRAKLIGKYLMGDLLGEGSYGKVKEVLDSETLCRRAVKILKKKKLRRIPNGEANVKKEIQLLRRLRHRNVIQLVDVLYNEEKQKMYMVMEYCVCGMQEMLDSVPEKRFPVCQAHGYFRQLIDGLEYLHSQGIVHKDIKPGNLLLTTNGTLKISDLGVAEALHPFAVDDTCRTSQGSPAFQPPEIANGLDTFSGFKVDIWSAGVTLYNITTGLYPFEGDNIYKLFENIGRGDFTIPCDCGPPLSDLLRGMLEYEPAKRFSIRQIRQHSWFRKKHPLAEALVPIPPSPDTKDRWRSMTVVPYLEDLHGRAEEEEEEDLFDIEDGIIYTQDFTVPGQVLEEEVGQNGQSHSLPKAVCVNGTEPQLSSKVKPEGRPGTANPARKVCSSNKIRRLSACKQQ

[4] = target: Flag-Smad7 (transfected) (UniProt O35253); assay: co-IP; sequential co-immunoprecipitation from transfected HEK-293T cells; lysis in 1% NP-40, 10 mM Tris-HCl pH 7.4, 150 mM NaCl, 1 mM EDTA; first anti-Flag M5 (Flag-Smad7), elution with 100 ug Flag peptide, second anti-HA (Y-11) against HA-ALK2 wild type; immunoblot with anti-Flag, anti-HA and anti-LKB1
[5] = target: T3, endogenous LKB1 (HaCaT) (human (endogenous in HaCaT)) (UniProt Q15831); assay: co-IP; endogenous proteins in HaCaT cells, without or with BMP7 for 1 h; LKB1 antibody or control mouse IgG pre-coupled to magnetic beads, overnight at 4°C; immunoblot for ALK2 and LKB1
T3 sequence: T1 sequence

## Smad7 (adenovirally expressed) (from UniProt O35253 1-426)
[1]
  binding: binds

## endogenous Smad7 (C2C12) (from UniProt O35253 1-426)
[2]
  binding: binds
[3]
  binding: binds

B1: wild-type ACVR1/ALK2, HA-tagged (pcDNA3, transfected) (receptor, UniProt Q04771 21-509)
chain: MEDEKPKVNPKLYMCVCEGLSCGNEDHCEGQQCFSSLSINDGFHVYQKGCFQVYEQGKMTCKTPPSPGQAVECCQGDWCNRNITAQLPTKGKSFPGTQNFHLEVGLIILSVVFAVCLLACLLGVALRKFKRRNQERLNPRDVEYGTIEGLITTNVGDSTLADLLDHSCTSGSGSGLPFLVQRTVARQITLLECVGKGRYGEVWRGSWQGENVAVKIFSSRDEKSWFRETELYNTVMLRHENILGFIASDMTSRHSSTQLWLITHYHEMGSLYDYLQLTTLDTVSCLRIVLSIASGLAHLHIEIFGTQGKPAIAHRDLKSKNILVKKNGQCCIADLGLAVMHSQSTNQLDVGNNPRVGTKRYMAPEVLDETIQVDCFDSYKRVDIWAFGLVLWEVARRMVSNGIVEDYKPPFYDVVPNDPSFEDMRKVVCVDQQRPNIPNRWFSDPTLTSLAKLMKECWYQNPSARLTALRIKKTLTKIDNSLDKLKTDC
[4]
  binding: binds

B2: endogenous wild-type ALK2 receptor (HaCaT) (receptor, UniProt Q04771 21-509)
chain: B1 chain
[5]
  binding: binds
